Experimental findings from article PMC7819943, “Rice protein-binding microarrays: a tool to detect cis-acting elements near promoter regions in rice” are described below.

Amino acid sequences for entries named in this document (tags omitted).
UniProt Q0JBA9, entry or part of it: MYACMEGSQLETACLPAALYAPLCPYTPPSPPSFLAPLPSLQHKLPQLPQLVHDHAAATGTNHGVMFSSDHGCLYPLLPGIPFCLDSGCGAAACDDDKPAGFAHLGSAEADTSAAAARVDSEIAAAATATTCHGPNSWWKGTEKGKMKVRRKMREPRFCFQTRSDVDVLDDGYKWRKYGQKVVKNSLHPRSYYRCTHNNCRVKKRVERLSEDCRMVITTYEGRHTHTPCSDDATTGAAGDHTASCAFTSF

The other results are listed elsewhere or left out.

This experiment concerns the target OsWRKY34 (Oryza sativa, UniProt Q0JBA9 1-250). Put plainly: protein-binding microarray (RPBM); PBS, 2% BSA, 51.3 ng/ul salmon testes DNA, 50 uM zinc acetate, 200 nM TF, 25 C, 1 h; high values mean tight binding. The note with it: protein: recombinant; tags: N-terminal polyhistidine and DsRed monomer fusion (pET32a); label: CyDye5-dUTP incorporated in the synthesized complementary strand; 3' TTTTT single-stranded linker to array surface; dsDNA, one strand shown. A digest of the protocol:
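Using Ni–NTA, transcription factors fused N-terminally to polyhistidine and DsRed were purified after expression in E. coli BL21-CodonPlus. These were incubated at 200 nM with a blocked, double-stranded custom Agilent array for 1 h at 25 °C in a buffer containing 50 µM zinc acetate, and the array was washed. The binding signal is per-feature fluorescence intensity (arbitrary units) on an Axon 4000B scanner.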
Regarding “TGGCTAGAGTTAGACTCTCTGTTTGGATTGATTATTGGGACGGAGTCACCTAGTGCAG”, the binding signal was 8160 fluorescence intensity (a.u.).
As for “ATCGATCCCTTGCCTTGCTCACGTACCGAGCTGCTTCAAGCGGAGTCACCTAGTGCAG”, the binding signal was 8530 fluorescence intensity (a.u.).
The same measure for “TCTCCTGGCCCAGCTCATACTTATTCTTTTCACAGGTTAGCGGAGTCACCTAGTGCAG”: 8820 fluorescence intensity (a.u.); for “ACTTTATGTACTTCTAATATAATTATTTTCTACTTTTACACGGAGTCACCTAGTGCAG”: 8500 fluorescence intensity (a.u.); for “TCTTTGTTAATTGTTACTGATTCATTTTGTTCCGTCCACACGGAGTCACCTAGTGCAG”: 10800 fluorescence intensity (a.u.).
For “TCAATCACTCTACCCATCGTCTTACTCCCTCTGTTTCAACCGGAGTCACCTAGTGCAG”, the binding signal is 9680 fluorescence intensity (a.u.).
As to “ATAGATTGTGGGGCCCAGATGTTGGTGGTAGACGTGGTTTCGGAGTCACCTAGTGCAG”, the binding signal is 8280 fluorescence intensity (a.u.).
On to “ATTGTGTAATACACACGAGTATTTACTAATCAAGAGGACCCGGAGTCACCTAGTGCAG”, for which the binding signal is 8260 fluorescence intensity (a.u.).
The same measure for “TTCTCCCCGACCTCCGCCATCCCCACACCCCACTGCTCCGCGGAGTCACCTAGTGCAG”: 8100 fluorescence intensity (a.u.); for “TTGCTTTTGTGTTCGGTTTTTCTATTTTTTCTATTTTCTTCGGAGTCACCTAGTGCAG”: 13700 fluorescence intensity (a.u.); for “TATTTTGGTTCAGGTAATTAGAAGTGTTGGTCAATGGTCACGGAGTCACCTAGTGCAG”: 8380 fluorescence intensity (a.u.).
With “CCGCCGCCTTTCCCGTCTCTCTCTCTACCTACACACTTTTCGGAGTCACCTAGTGCAG”, the binding signal was 9630 fluorescence intensity (a.u.).
The same measure for “TGCTGTTCGTCGCGCTCTAATATAATCTGCCAATGGATTTCGGAGTCACCTAGTGCAG”: 9830 fluorescence intensity (a.u.); for “GCAAAGCTTTGATTCTCCTACTGATACATTGTTACCCACTCGGAGTCACCTAGTGCAG”: 9140 fluorescence intensity (a.u.).
The same measure for “GCCGTCGCCCCTCCTCCTGCTCCGGCCGCGCGCCGCTTGCCGGAGTCACCTAGTGCAG”: 8920 fluorescence intensity (a.u.); for “GATATCTTGCGCGCCTCGTTGCATATTTCCAAAAAGGACACGGAGTCACCTAGTGCAG”: 8170 fluorescence intensity (a.u.); for “TCTGCACTTATGCTATACGCTGCTTCTCTCCCGAAACCATCGGAGTCACCTAGTGCAG”: 8140 fluorescence intensity (a.u.).
Regarding “GCTGGAGCGCCGCCGCAGCCCGCAGGTCGATGGGGAGGGGCGGAGTCACCTAGTGCAG”, the binding signal was 8100 fluorescence intensity (a.u.).
The same measure for “CACAGTTGCAGTCTCCATGGGGCTACCTCACTTTAATTACCGGAGTCACCTAGTGCAG”: 10100 fluorescence intensity (a.u.).
For the sequence “TATTTCATTATTTATTCACTTGCCACATTATTTTTCATTTCGGAGTCACCTAGTGCAG”, the binding signal is 9900 fluorescence intensity (a.u.).
Take “TCGCTGATCTTCTCTCACTCACTCCGTCTCCCACAACCACCGGAGTCACCTAGTGCAG”: the binding signal is 8040 fluorescence intensity (a.u.).
The same measure for “TATAGTGTGAATTGTGTGAATCCCTGATTTGCTTGTTTGCCGGAGTCACCTAGTGCAG”: 8900 fluorescence intensity (a.u.); for “TCTATGAAGACAGACGGGTGCTGTGTTGTTTTCTCTCTTTCGGAGTCACCTAGTGCAG”: 8110 fluorescence intensity (a.u.).
Next, “TCAACTCGAGGCTCCCAACCTTCGCTTCTTCGTTTCTCGCCGGAGTCACCTAGTGCAG”: 10600 fluorescence intensity (a.u.).
Next, “TATTTGCAGTAACTCTTTTGTGGATTTGTTTCCGTTCTGCCGGAGTCACCTAGTGCAG”: 8780 fluorescence intensity (a.u.); “CCTTTGTTTTCACTGGTGTACTAGGCTGGCCCATTCGCGGCGGAGTCACCTAGTGCAG”: 8080 fluorescence intensity (a.u.); “CCTGTGCTCTTCTGCTGGACTCCTCGTCCTGCCATGTAGCCGGAGTCACCTAGTGCAG”: 9750 fluorescence intensity (a.u.).
Take “CTTGGCCCTTGTTGCACCTGCCCAATTGCACCAATCGTCTCGGAGTCACCTAGTGCAG”: the binding signal was 8900 fluorescence intensity (a.u.).
“ACCATTTAAATTAATTATGTCTACCTACCTACTACATTATCGGAGTCACCTAGTGCAG”: the binding signal was 10200 fluorescence intensity (a.u.).
For “CGATCCCTAACATTGAGGAACGAGTCTCACGCATTCTCTCCGGAGTCACCTAGTGCAG”, the binding signal was 8100 fluorescence intensity (a.u.).
For “CTTGTTTTTATTTTGGCACTGCTTACAGTCTTACACTAATCGGAGTCACCTAGTGCAG”, the binding signal is 10500 fluorescence intensity (a.u.).
Regarding “CATCCATTTTCTTGCTACAGTTATTAAGCGCATATCACCTCGGAGTCACCTAGTGCAG”, the binding signal was 9630 fluorescence intensity (a.u.).
Regarding “TTCAGTTGGTCCAAATATCCTTTTATGTGACTTTCAATGACGGAGTCACCTAGTGCAG”, the binding signal is 8030 fluorescence intensity (a.u.).
Consider “TATAGTCCACTAAGTTCAACATGCTACCACGCCACATCATCGGAGTCACCTAGTGCAG”, for which the binding signal is 8400 fluorescence intensity (a.u.).
For “TAGTTTGCCTGCCATCATTTCTCTCTTAGCGACACCTTATCGGAGTCACCTAGTGCAG”, the binding signal is 8400 fluorescence intensity (a.u.).
For “AGTTGCTTATTTGGCCTGTTTTAGACTCTAAGACTATGTTCGGAGTCACCTAGTGCAG”, the binding signal is 8290 fluorescence intensity (a.u.).
Next, “ATTTATGTTTTGGGCCTTTTCATCGTAATTTGTTTTTCAGCGGAGTCACCTAGTGCAG”: 9450 fluorescence intensity (a.u.).
Next, “TGCCGTCGGCCCCACCTGTCATCACCTACCCCTGGTCGACCGGAGTCACCTAGTGCAG”: 8990 fluorescence intensity (a.u.); “TTTTAACGTGGTTCCTTTTTCTGCATTGACTTTTAAGTCACGGAGTCACCTAGTGCAG”: 10100 fluorescence intensity (a.u.).
Next, “CCGTCGCTGCAGCTTTACTCTGGCCCGATTTCCCGCATAACGGAGTCACCTAGTGCAG”: 11000 fluorescence intensity (a.u.).
Take “CTTTTCAACTTATATCGCTCCTGTTCTCATTTTACTATTTCGGAGTCACCTAGTGCAG”: the binding signal is 11700 fluorescence intensity (a.u.).
Take “CTCCCTCCTCGCTTGCACTCGCTGCTCTCTCTCTCTCTCTCGGAGTCACCTAGTGCAG”: the binding signal is 8930 fluorescence intensity (a.u.).
